From the supplement of paper PMC5393889
This is one part of the list.

The compounds below were run on Caenorhabditis elegans N2 (assay: aldicarb interaction hit call (worm growth perturbed in combination with 10 uM aldicarb in both replicates, no effect as single agent) (binary (1 = interacts)); higher = interacts with aldicarb (growth perturbed)). Conditions: first compound 1.5 µM; aldicarb concentration 10 µM; 6 days; 20 °C.

| SMILES | aldicarb interaction hit call |
| --- | --- |
| Fc1cccc(NC2CCCN(Cc3cnn(-c4ccccc4)c3)C2)c1 (stereo not given) [wact-274] + CNC(=O)O/N=C/C(C)(C)SC [aldicarb] | inactive: 0 |
| O=C(Nc1ccc(-c2cccc(F)c2)cc1)C1CCCN(CCCn2cccn2)C1 (stereo not given) [wact-323] + CNC(=O)O/N=C/C(C)(C)SC [aldicarb] | inactive: 0 |
| c1ccc2[nH]c(-c3cscn3)nc2c1 [wact-617] + CNC(=O)O/N=C/C(C)(C)SC [aldicarb] | inactive: 0 |
| Brc1ccc2[nH]c3c(c2c1)CCCC3NCCc1ccccc1.Cl (stereo not given) [wact-389] + CNC(=O)O/N=C/C(C)(C)SC [aldicarb] | inactive: 0 |
| COc1ccc(-c2noc(CCCOc3ccccc3)n2)cc1 [wact-604] + CNC(=O)O/N=C/C(C)(C)SC [aldicarb] | inactive: 0 |
| CCc1ccc(C(=O)Nc2ccccc2Cl)cc1 [wact-560] + CNC(=O)O/N=C/C(C)(C)SC [aldicarb] | inactive: 0 |
| Fc1ccc(-c2cn3ccsc3n2)cc1 [wact-433] + CNC(=O)O/N=C/C(C)(C)SC [aldicarb] | inactive: 0 |
| CSc1ccccc1C(=O)NCCSC1CCCCC1 [wact-125] + CNC(=O)O/N=C/C(C)(C)SC [aldicarb] | inactive: 0 |
| CCN1CCN(C(=O)Nc2cc(Cl)cc(Cl)c2)CC1 [wact-199] + CNC(=O)O/N=C/C(C)(C)SC [aldicarb] | inactive: 0 |
| CC(C)(C)OC(=O)Nc1ccc(F)c(Cl)c1 [wact-573] + CNC(=O)O/N=C/C(C)(C)SC [aldicarb] | inactive: 0 |
